In article PMC4741966 one finds binding data, which are given here for 1 substance.

Sequences of proteins named here, by UniProt entry; tags and fusion partners are left off.
UniProt Q64010: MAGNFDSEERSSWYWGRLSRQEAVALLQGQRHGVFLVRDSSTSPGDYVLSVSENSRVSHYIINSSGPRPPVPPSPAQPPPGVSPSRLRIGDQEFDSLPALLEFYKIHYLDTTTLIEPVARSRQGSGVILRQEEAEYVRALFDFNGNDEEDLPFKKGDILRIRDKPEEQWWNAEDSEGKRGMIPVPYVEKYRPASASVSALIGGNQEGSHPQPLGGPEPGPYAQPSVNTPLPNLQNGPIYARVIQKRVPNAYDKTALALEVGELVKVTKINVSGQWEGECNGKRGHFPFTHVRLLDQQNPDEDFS
UniProt P00520: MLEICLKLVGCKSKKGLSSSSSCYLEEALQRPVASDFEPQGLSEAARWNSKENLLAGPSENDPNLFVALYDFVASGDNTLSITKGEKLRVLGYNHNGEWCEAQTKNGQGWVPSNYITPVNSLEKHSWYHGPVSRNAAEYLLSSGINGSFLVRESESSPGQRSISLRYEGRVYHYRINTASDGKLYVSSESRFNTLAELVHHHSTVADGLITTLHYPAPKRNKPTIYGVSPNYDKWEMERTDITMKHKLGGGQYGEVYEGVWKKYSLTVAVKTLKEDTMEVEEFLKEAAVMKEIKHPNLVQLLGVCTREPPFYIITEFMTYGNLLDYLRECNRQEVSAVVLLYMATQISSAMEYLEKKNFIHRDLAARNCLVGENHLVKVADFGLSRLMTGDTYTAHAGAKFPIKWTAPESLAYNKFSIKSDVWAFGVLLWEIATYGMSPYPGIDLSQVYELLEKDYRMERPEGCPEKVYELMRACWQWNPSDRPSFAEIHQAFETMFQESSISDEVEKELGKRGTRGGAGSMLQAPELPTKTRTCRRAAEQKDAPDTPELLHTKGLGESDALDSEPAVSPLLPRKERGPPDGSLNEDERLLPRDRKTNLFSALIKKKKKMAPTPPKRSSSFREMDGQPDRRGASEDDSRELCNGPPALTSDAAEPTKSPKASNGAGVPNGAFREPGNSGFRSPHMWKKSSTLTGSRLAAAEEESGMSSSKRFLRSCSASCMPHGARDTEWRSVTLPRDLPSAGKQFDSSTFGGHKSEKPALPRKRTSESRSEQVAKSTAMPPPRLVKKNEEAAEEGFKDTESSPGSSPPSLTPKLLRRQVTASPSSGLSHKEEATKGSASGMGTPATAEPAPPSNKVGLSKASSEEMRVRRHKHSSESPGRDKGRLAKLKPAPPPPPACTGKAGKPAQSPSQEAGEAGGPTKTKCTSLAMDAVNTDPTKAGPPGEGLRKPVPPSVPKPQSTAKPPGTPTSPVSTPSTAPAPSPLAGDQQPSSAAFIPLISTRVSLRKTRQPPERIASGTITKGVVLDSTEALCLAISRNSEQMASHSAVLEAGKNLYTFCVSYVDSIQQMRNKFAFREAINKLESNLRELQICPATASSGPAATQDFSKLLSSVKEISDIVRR

The target of this experiment is Crk (endogenous, in MEFs) (mouse (endogenous in MEFs)) (UniProt Q64010). Briefly: co-IP; endogenous proteins; Crk immunoprecipitated and blotted for Abl, and the reverse with an Abl antibody and a Crk blot; Abi1-/- MEFs compared with Abi1-expressing cells, after diluent or hEGF; lysis in 1% HNTG buffer, protein A/G agarose, washes with 0.1% HNTG.

These are yes or no findings as the source states them, for the method shown. In cells and extracts the contact can be indirect. Some binding calls cover weakened binding; strength is not graded here.

As for “Abl kinase (endogenous, in MEFs) (from UniProt P00520 1-1123) (enzyme)”, the binding entry was “binds”.
